Measured values from PubChem BioAssay AID1347076 (National Center for Advancing Translational Sciences (NCATS), 2019).
Out of some 400,000 compounds screened, about 13,000 (3.2%) were called active. The shares of active, inactive and inconclusive entries below differ from those in the screen. Calls follow the shape of the dose curve; as a rule, active = well fitted cell-killing curve with a large enough effect; inconclusive = small, poorly fitted or top-dose-only effect, or effect the other way; inactive = flat fitted curve, though single readings scatter. A potency beside an inconclusive call is a rough fit, not a confirmed value.

Experiment: qHTS assay for MDR1-selective chemotherapeutics: Primary screen using the drug-selected MDR subline cells KB-V1; also: nearly all actives have a fitted effect of over 60% in size
Conditions: KB-V1 MDR cells viability, CellTiter-Glo, 72 h; activity change, negative = cytotoxicity: at 46.1 µM (top of the series)
Summary of the method: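 KB-V1 MDR subline cells in DMEM (phenol-red free, 10% FBS) exposed to compounds in qHTS concentration series for 72 h at 37 degrees C. Viability read by CellTiter-Glo luminescence; concentration-effect curves fitted after normalization and correction.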
% is scaled to controls: 0 for no effect and ±100 for the full control effect; potency is read from the fitted curve at half-maximal effect.

| SMILES | Potency | activity change, negative = cytotoxicity |
| --- | --- | --- |
| N=c1n(CC(=O)c2ccc([N+](=O)[O-])cc2)c2ccccc2n1Cc1ccccc1 | inconclusive: 5.8 µM [cytotoxic, full curve] |  |
| Cc1ccc(CNC(=O)Nc2ccc(F)cc2F)n1C | inconclusive: 23.1 µM [rising, single point] |  |
| Cc1ccc(-c2cc(=O)[nH]c3ccccc23)cc1 |  | inactive: -10.6% |
| O=C(CSc1cccc[n+]1[O-])Nc1ccccc1Oc1ccccc1 | inconclusive: 16.4 µM [cytotoxic, single point] |  |
| C=CCn1c(-c2cc3c(s2)CCC(CC)C3)n[nH]c1=S (stereo unspecified) | inconclusive: 25.9 µM [cytotoxic, single point] |  |
| O=Cc1ccc(N2CCCCCC2)cc1 | inconclusive: 29.1 µM [rising, single point] |  |
| Cc1cc(C(=O)N2CCC(C)CC2)on1 | inconclusive: 29.1 µM [rising, single point] |  |
| Cc1cc(NCCCn2ccnc2)n2nc(C)c(-c3ccc(Cl)cc3)c2n1 | active: 23.1 µM |  |
| COc1ccc(NC(=O)c2cc(S(=O)(=O)N3CCOCC3)ccc2C)cc1S(=O)(=O)N1CCCCC1 | inconclusive: 13 µM [rising, single point] |  |
| CCOC(=O)C1=C[C@@H](C2CCCC2)N(S(=O)(=O)c2ccc([N+](=O)[O-])cc2)[C@H]1c1ccccc1 | inconclusive: 29.1 µM [cytotoxic, single point] |  |
| CCOC(=O)C(NC(=O)c1ccccc1Cl)(Nc1ccc(C)c(C)c1)C(F)(F)F (stereo unspecified) | inconclusive: 29.1 µM [cytotoxic, single point] |  |
| N#CCCC1CCCC=C1N(Cc1ccccc1)C(=O)C(Cl)Cl (stereo unspecified) | inconclusive: 20.6 µM [cytotoxic, single point] |  |
| O=C(COc1ccc(Cl)cc1Cl)N1CCN(C(=O)c2ccco2)CC1 | inconclusive: 7.31 µM [cytotoxic, partial curve] |  |
| CCOC(=O)/C=C1\Nc2ccccc2OC1=O |  | inactive: -23.4% |
| Cc1ccc(C(O)CCc2ccc(N)cc2)cc1 (stereo unspecified) |  | inactive: -4.1% |
| COc1ccc(-c2cn3cc([N+](=O)[O-])ccc3n2)cc1OC |  | inactive: 1.15% |
| O=S(=O)(Nc1ccc(O)c(Sc2nc3ccccc3s2)c1)c1ccc(F)cc1 |  | inactive: -13.2% |
| COc1ccc(C(=O)Nc2ccc3c(c2)C(=O)NC3=O)cc1 | inconclusive: 1.16 µM [rising, partial curve, poor fit] |  |
| CC1CCN(CCc2nc3cc(NS(=O)(=O)c4ccccc4)ccc3n2C)CC1 | inconclusive: 29.1 µM [cytotoxic, single point] |  |
| COC(=O)c1cc(S(=O)(=O)NCCN2CCOCC2)cn1C | inconclusive: 29.1 µM [rising, single point] |  |
| CCc1nc2ccc(C(=O)Nc3cccc(OCC(=O)N(C)C)c3)cn2c1N(C)Cc1ccc(OC)cc1 | inconclusive: 18.4 µM [cytotoxic, single point] |  |
| CC(=O)c1sc(NC(=O)CN2C(=O)C3CCCCC3C2=O)nc1-c1ccccc1 (stereo unspecified) | inconclusive: 20.6 µM [rising, partial curve, poor fit] |  |
| CCOc1ccc2nc(Cl)c(C3CC(c4ccc(OC)cc4)=NN3S(C)(=O)=O)cc2c1 (stereo unspecified) |  | inconclusive: 7.42% |
| CCOC(=O)CNC(=O)Nc1cc(C(=O)NCc2ccccc2OC)ccc1N1CCCC1 |  | inactive: 27.4% |

| SMILES | Potency | activity change, negative = cytotoxicity |
| --- | --- | --- |
| O=C(CSc1ccc2nnc(-c3ccncc3)n2n1)Nc1ccccc1F | inconclusive: 0.731 µM [rising, full curve, poor fit] |  |
| C[C@]12c3[nH]c4ccc(Cl)cc4c3CCN1C(=O)[C@@H](CC(=O)NCC13CC4CC(CC(C4)C1)C3)C[C@@H]2C(=O)N1CCOCC1 | inconclusive: 16.4 µM [cytotoxic, single point] |  |
| S=C(NCc1ccncc1)Nc1cc(Cl)cc(Cl)c1 |  | inconclusive: -39.8% [cytotoxic] |
| CCOc1ccc2nnc(-c3ccc(Br)cc3)n2n1 | inconclusive: 13 µM [cytotoxic, partial curve] |  |
| O=C(Nc1ccc(N2CCOCC2)cc1)C1CCCCC1 |  | inactive: -0.574% |
| Cc1ccc(NC(=O)c2cc(N3C(=O)C=CC3=O)ccc2Cl)cc1C |  | inactive: 11.5% |
| CC(=O)c1ccc(NC(=O)CC(C)S(=O)(=O)c2ccc3c(c2)CCN3C(C)=O)cc1 (stereo unspecified) |  | inactive: 0% |
| CCCn1nc(C(=O)OCc2nc(N)nc(Nc3ccccc3C)n2)c2ccccc2c1=O | active: 20.6 µM |  |
| Cc1onc(-c2ccccc2Cl)c1C(=O)O/N=C(\N)c1ccc([N+](=O)[O-])o1 | inconclusive: 29.1 µM [cytotoxic, single point] |  |
| COc1ccc(Cl)cc1NC(=O)C1CCCN(c2ncnc3onc(C)c23)C1 (stereo unspecified) | inconclusive: 6.51 µM [cytotoxic, partial curve, poor fit] |  |
| Cc1cc(C)cc(NC(=O)CN2C(=O)NC(Cc3c[nH]c4ccccc34)C2=O)c1 (stereo unspecified) |  | inactive: 0% |
| CCOc1ccc(NC(=O)C2CCCN(c3ccc(Sc4ccc(C)cc4)nn3)C2)cc1 (stereo unspecified) |  | inactive: 0.732% |
| Cc1ccc(C(CC(=O)c2ccco2)SCCO)cc1 (stereo unspecified) | inconclusive: 32.6 µM [cytotoxic, single point] |  |
| CCOc1cc(/C=C/C(=O)c2ccc(OC)c(CN3CCOCC3)c2)cc(Br)c1O | inconclusive: 29.1 µM [cytotoxic, partial curve, poor fit] |  |
| CCC(Oc1ccccc1F)C(=O)N1CCC(c2nc3ccccc3s2)CC1 (stereo unspecified) |  | inactive: 0% |
| CCC(C)c1ccccc1N1CC(C(=O)Nc2cc(S(=O)(=O)N3CCOCC3)ccc2OC)CC1=O (stereo unspecified) |  | inactive: 0% |
| O=C(CCN1C(=O)c2ccccc2C1=O)N1CCN(Cc2ccc(Cl)cc2Cl)CC1 | active: 14.6 µM |  |
| CCCc1cc(C(=O)N2CCCC(C(=O)c3cccc4ccccc34)C2)n(C)n1 (stereo unspecified) | inconclusive: 7.31 µM [cytotoxic, partial curve] |  |
| CC1CC(C)CN(C(=O)COC(=O)/C=C/c2ccco2)C1 (stereo unspecified) | inconclusive: 23.1 µM [cytotoxic, single point] |  |
| CC(C)CCn1c(Sc2nc3ccccc3o2)nc2c1c(=O)[nH]c(=O)n2C | active: 14.6 µM |  |
| CC(C)COc1ccc(C(=O)OCC(=O)NCc2cccs2)cc1 | inconclusive: 16.4 µM [cytotoxic, single point] |  |
| COC(=O)c1ccc(CNC(=O)CSc2nc3sc(C)c(C)c3c(=O)n2C)o1 | inconclusive: 23.1 µM [cytotoxic, partial curve] |  |
| COc1ccccc1NC(=O)c1ccc2c(c1)N(CC#N)C(=O)C(C)(C)O2 |  | inactive: -22.7% |
| CC(NC(=O)c1cncc(Br)c1)c1ccc(S(N)(=O)=O)cc1 (stereo unspecified) |  | inactive: 19.7% |

| SMILES | Potency | activity change, negative = cytotoxicity |
| --- | --- | --- |
| CC1(C(=O)NCC2CC2)Cc2c(-c3ccc4c(c3)OCO4)ccnc2O1 (stereo unspecified) | inconclusive: 3.66 µM [cytotoxic, partial curve, poor fit] |  |
| CC(C)c1nc2oc3ccccc3c(=O)c2c(=O)n1-c1ccccc1 | inconclusive: 18.4 µM [cytotoxic, partial curve, poor fit] |  |
| CN(C)c1ccc(-c2nnc(SCC(=O)NCc3ccco3)n2C)cc1 |  | inactive: -8.71% |
| CCOc1ccc(Nc2nc3cc(Cl)c(Cl)cc3nc2-n2nc(C)cc2C)cc1 | inconclusive: 29.1 µM [rising, single point] |  |
| CCOC(=O)N1CCC(NC(=O)C2CCN(S(=O)(=O)c3ccc4c(c3)oc(=O)n4C)CC2)CC1 | inconclusive: 10.3 µM [rising, partial curve, poor fit] |  |
| O=C(CCCOC(=O)c1ccc(O)cc1O)c1ccc(Br)cc1 | inconclusive: 29.1 µM [cytotoxic, single point] |  |
| COC(=O)C1=C(COc2ccccc2)NC(=O)NC1c1ccc2ccccc2c1 (stereo unspecified) |  | inactive: -14.4% |
| Cc1ccc(C)c(S(=O)(=O)c2nnn3c2nc(NC(C)C)c2sccc23)c1 | inconclusive: 11.6 µM [cytotoxic, partial curve] |  |
| CCCSc1nnc(N2C(=O)C(O)=C(C(=O)c3ccco3)C2c2ccccc2F)s1 (stereo unspecified) | inconclusive: 29.1 µM [cytotoxic, single point] |  |
| CCS(=O)(=O)N1Cc2ccccc2CC1C(=O)NC(C)C12CC3CC(CC(C3)C1)C2 (stereo unspecified) |  | inactive: -6.33% |
| CCCCCCNC(=O)O[C@]12C[C@@H](C(=O)OC)[C@@H](C(=O)OC)C[C@@]1(O)CN(S(=O)(=O)c1ccc(C)cc1)C2 | inconclusive: 16.4 µM [rising, partial curve] |  |
| Cc1ccccc1-c1nc(CN(Cc2c(C)nn(C)c2C)C2CC2)c(C)o1 |  | inactive: -42.6% |
| COc1ccc(CNC(=O)c2cc(-c3ccc(C)cc3)nc3n[nH]c(-c4ccc(Br)cc4)c23)cc1 | inconclusive: 29.1 µM [rising, single point] |  |
| Cc1ccc(C2=NN(C(=O)c3ccccc3F)C(c3ccccc3F)C2)cc1 (stereo unspecified) | inconclusive: 29.1 µM [cytotoxic, single point] |  |
| Oc1ccc2ccc(Cl)cc2c1 |  | inactive: 0% |
| CCN(c1ccccc1)c1ccc2cc(S(=O)(=O)N3CCCC3)ccc2n1 |  | inactive: 9.08% |
| CC(C)C(c1nnnn1C1CCCC1)N(C)C1CCCCC1 (stereo unspecified) | active: 18.4 µM |  |
| CCOC(=O)C1=C(CSc2nccn2C)NC(=O)NC1c1cc(C)ccc1C (stereo unspecified) |  | inactive: -8.42% |
| c1ccc(CCc2nn3c(Cn4cnc5ccccc54)nnc3s2)cc1 | active: 18.4 µM |  |
| COc1ccccc1C=C1CCc2ccccc2C1=O |  | inactive: 2.26% |
| COCCN(C(=O)c1ccc(C#N)cc1)c1c(N)n(Cc2ccccc2)c(=O)[nH]c1=O | inconclusive: 18.4 µM [rising, single point] |  |
| CCc1ccccc1Nc1nn2c(=O)c3ccc(C(=O)NCc4ccccc4OC)cc3nc2s1 | inconclusive: 25.9 µM [rising, single point] |  |
| O=C(CSc1nnc(-c2c[nH]c3ccccc23)o1)N1c2ccccc2CCc2ccccc21 | inconclusive: 16.4 µM [cytotoxic, partial curve, poor fit] |  |

Exported bar-delimited: part of the list above
SMILES | Potency | activity change, negative = cytotoxicity
CCOC(=O)N1CCC(NC(=O)C2CCN(S(=O)(=O)c3ccc4c(c3)oc(=O)n4C)CC2)CC1 | inconclusive: 10.3 µM [rising, partial curve, poor fit] | 
O=C(CCCOC(=O)c1ccc(O)cc1O)c1ccc(Br)cc1 | inconclusive: 29.1 µM [cytotoxic, single point] | 
COC(=O)C1=C(COc2ccccc2)NC(=O)NC1c1ccc2ccccc2c1 (stereo unspecified) |  | inactive: -14.4%
Cc1ccc(C)c(S(=O)(=O)c2nnn3c2nc(NC(C)C)c2sccc23)c1 | inconclusive: 11.6 µM [cytotoxic, partial curve] | 
CCCSc1nnc(N2C(=O)C(O)=C(C(=O)c3ccco3)C2c2ccccc2F)s1 (stereo unspecified) | inconclusive: 29.1 µM [cytotoxic, single point] | 
CCS(=O)(=O)N1Cc2ccccc2CC1C(=O)NC(C)C12CC3CC(CC(C3)C1)C2 (stereo unspecified) |  | inactive: -6.33%
CCCCCCNC(=O)O[C@]12C[C@@H](C(=O)OC)[C@@H](C(=O)OC)C[C@@]1(O)CN(S(=O)(=O)c1ccc(C)cc1)C2 | inconclusive: 16.4 µM [rising, partial curve] | 
Cc1ccccc1-c1nc(CN(Cc2c(C)nn(C)c2C)C2CC2)c(C)o1 |  | inactive: -42.6%
COc1ccc(CNC(=O)c2cc(-c3ccc(C)cc3)nc3n[nH]c(-c4ccc(Br)cc4)c23)cc1 | inconclusive: 29.1 µM [rising, single point] | 
Cc1ccc(C2=NN(C(=O)c3ccccc3F)C(c3ccccc3F)C2)cc1 (stereo unspecified) | inconclusive: 29.1 µM [cytotoxic, single point] | 
Oc1ccc2ccc(Cl)cc2c1 |  | inactive: 0%
CCN(c1ccccc1)c1ccc2cc(S(=O)(=O)N3CCCC3)ccc2n1 |  | inactive: 9.08%
CC(C)C(c1nnnn1C1CCCC1)N(C)C1CCCCC1 (stereo unspecified) | active: 18.4 µM | 
CCOC(=O)C1=C(CSc2nccn2C)NC(=O)NC1c1cc(C)ccc1C (stereo unspecified) |  | inactive: -8.42%
c1ccc(CCc2nn3c(Cn4cnc5ccccc54)nnc3s2)cc1 | active: 18.4 µM | 
COc1ccccc1C=C1CCc2ccccc2C1=O |  | inactive: 2.26%
COCCN(C(=O)c1ccc(C#N)cc1)c1c(N)n(Cc2ccccc2)c(=O)[nH]c1=O | inconclusive: 18.4 µM [rising, single point] | 
CCc1ccccc1Nc1nn2c(=O)c3ccc(C(=O)NCc4ccccc4OC)cc3nc2s1 | inconclusive: 25.9 µM [rising, single point] | 
